Drawing on paper PMC11143218, “Evolved histone tail regulates 53BP1 recruitment at damaged chromatin” (Nature Communications, 2024), this text covers binding for two molecules.

Protein sequences, listed by entry. Tags and fused reporters are not part of them. Residues count along the entry.
UniProt Q12888, residues 1220-1639: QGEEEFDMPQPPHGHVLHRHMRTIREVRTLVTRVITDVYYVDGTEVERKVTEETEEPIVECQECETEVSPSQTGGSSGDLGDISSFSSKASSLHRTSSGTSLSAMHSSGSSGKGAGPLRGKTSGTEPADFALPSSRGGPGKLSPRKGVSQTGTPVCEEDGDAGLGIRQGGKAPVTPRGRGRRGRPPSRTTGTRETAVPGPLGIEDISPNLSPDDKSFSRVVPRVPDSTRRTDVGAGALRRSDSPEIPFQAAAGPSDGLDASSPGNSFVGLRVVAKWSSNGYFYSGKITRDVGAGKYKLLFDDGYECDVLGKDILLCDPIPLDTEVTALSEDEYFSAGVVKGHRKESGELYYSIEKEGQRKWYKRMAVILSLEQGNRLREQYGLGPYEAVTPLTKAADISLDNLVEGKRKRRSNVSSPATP

In assay [1] the target is T1, biotinylated phosphorylated S139 H2AX C-terminal tail peptide (human).
T1 sequence (peptide, biotin on the N-terminus; phosphoserine (pS) at S139): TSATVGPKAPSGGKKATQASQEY
The experiment in a line: pull-down; HEK293T lysates (myc-tagged expression vectors, NETN buffer) incubated with 2.5 μg biotinylated peptide and 10 μL streptavidin beads, 1 h at 4 °C; washed three times with NETN; western blot; only the target purified.

The target of assay [2] is T2, biotinylated phosphorylated S139 H2AX C-terminal tail with Y142L mutation (human).
T2 sequence (peptide, biotin on the N-terminus; phosphoserine (pS) at S139): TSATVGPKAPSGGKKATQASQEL
Described as above.

Results are given in words; binding and its absence hold for the method and conditions named. In cells and extracts the contact can be indirect. Some entries that bind do so weakly or less than the wild type. For part of these data: Tags and fused reporters may be left off the sequences shown.

Turning to “Myc-53BP1 IRIF formation fragment a.a. 1220-1639 (from UniProt Q12888 1220-1639) (domain or fragment)”, the binding result in assay [1] and in assay [2] was “binds” in each case.

B1: Myc-Crb2 a.a. 108–508 (domain or fragment, UniProt P87074 108-508)
chain: SPYSPKQTHTVLKRLYDRQSVISDHEKLLTPQNVSNSSQILSPFTSLLPSTLSTLKDTPLSVSQNEKNLETVGEVLVPETVAQHRTKFYDYTLDEMENETESGQVETTPTRLATSLGSPVLYGRVESTPPAFLPETSEKQYKRKFSFTEPSSEKVDNTETKFSKKTKNINDENFPNPFNVISSYETSASPSTVIDQSSQVSSIFVNKRLRKSVNNQAISRSDSLSLDTPKIDSLFTRASIKPLKPSQSPNSRRSFKNRVLAFFKGYPSFYYPATLVAPVHSAVTSSIMYKVQFDDATMSTVNSNQIKRFFLKKGDVVQSTRLGKIKHTVVKTFRSTNEQLSLIAVDALNNDMVILAHGEIEVTVPISTIYVAPVNIRRFQGRDLSFSTLKDMKFEETSFLP
Take B1: in assay [1], the binding entry is reported as “no binding”.
